Values from PubChem BioAssay AID1259424 (University of Nebraska Medical Center, 2018)
The deposit covers about 14,000 reagents; below is a random part of them. 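Higher correlation or smaller distance means closer resemblance to KSR1 loss; control wells, including KSR1 knockdowns, recur on many plates.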 Further read-outs or replicates are left out here. No sequences are given here. Not stated in the record: the time to read-out.

Test: 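Find knockdowns that reproduce the expression shifts seen after KSR1 loss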 (primary screen)
Cell system: human HCT116 colon cancer cells
Reagents: siRNA pool against human genes, 50 nM
Measured: 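Log2 levels of six mRNAs (branched-DNA multiplex), adjusted by two reference genes and the non-targeting median, then scored against the average KSR1 knockdown pattern as Pearson r and euclidean distance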
Direction: mean correlation with KSR1 profile: higher = expression change more like KSR1 knockdown; mean distance from KSR1 profile: higher = expression change less like KSR1 knockdown

NEUROD4 — mean correlation with KSR1 profile = 0.058; mean distance from KSR1 profile = 1.43
R3HCC1L — mean correlation with KSR1 profile = -0.271; mean distance from KSR1 profile = 1.41
C1orf115 — mean correlation with KSR1 profile = 0.706; mean distance from KSR1 profile = 1.26
C14orf119 — mean correlation with KSR1 profile = -0.644; mean distance from KSR1 profile = 7.13
FTL — mean correlation with KSR1 profile = -0.123; mean distance from KSR1 profile = 2.14
PRICKLE4 — mean correlation with KSR1 profile = -0.276; mean distance from KSR1 profile = 1.48
ITPKC — mean correlation with KSR1 profile = -0.43; mean distance from KSR1 profile = 2.65
PIGY — mean correlation with KSR1 profile = 0.0302; mean distance from KSR1 profile = 3.16
H2BC21 — mean correlation with KSR1 profile = 0.0263; mean distance from KSR1 profile = 3.44
ERCC1 — mean correlation with KSR1 profile = -0.235; mean distance from KSR1 profile = 3.86
HILPDA — mean correlation with KSR1 profile = -0.742; mean distance from KSR1 profile = 3.71
AGA — mean correlation with KSR1 profile = -0.435; mean distance from KSR1 profile = 2.57
THAP9 — mean correlation with KSR1 profile = 0.443; mean distance from KSR1 profile = 1.45
MT1X — mean correlation with KSR1 profile = -0.173; mean distance from KSR1 profile = 2.38
TESK2 — mean correlation with KSR1 profile = 0.683; mean distance from KSR1 profile = 1.39
HCAR2 — mean correlation with KSR1 profile = 0.542; mean distance from KSR1 profile = 1.56
PIF1 — mean correlation with KSR1 profile = 0.732; mean distance from KSR1 profile = 1.15
NT5M — mean correlation with KSR1 profile = -0.379; mean distance from KSR1 profile = 1.24
ADAP1 — mean correlation with KSR1 profile = 0.109; mean distance from KSR1 profile = 1.48
